Laboratory results as given in patent US20050037420A1 (published 2005).
Results are given in words; binding and its absence hold for the method and conditions named. Some entries that bind do so weakly or less than the wild type.

By UniProt entry, the sequences of proteins in these tests, tags left out.
UniProt P36292: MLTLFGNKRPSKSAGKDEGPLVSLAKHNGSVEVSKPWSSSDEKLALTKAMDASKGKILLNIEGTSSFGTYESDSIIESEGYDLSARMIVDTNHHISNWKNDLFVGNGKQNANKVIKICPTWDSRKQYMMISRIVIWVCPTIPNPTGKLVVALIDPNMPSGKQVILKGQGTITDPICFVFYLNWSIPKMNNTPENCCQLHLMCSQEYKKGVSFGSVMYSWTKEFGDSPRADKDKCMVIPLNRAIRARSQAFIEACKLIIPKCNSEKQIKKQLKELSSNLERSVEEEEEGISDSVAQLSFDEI

Columns and labels:
[1] = target: NSM protein from inclusion bodies (Tomato Spotted Wilt Virus) (UniProt P36292); test: indirect ELISA, mini-scale expressed soluble scFv
[2] = target: full-length NSM protein (putative movement protein of Tomato Spotted Wilt Virus) obtained from the IMPACT expression system (Tomato Spotted Wilt Virus) (UniProt P36292); test: capture ELISA, soluble NSM captured by rabbit polyclonal antibodies (FIG. 5B)
[3] = target: NSM protein from inclusion bodies (Tomato Spotted Wilt Virus) (UniProt P36292); test: ELISA of bacterially expressed soluble scFvs; target told as either form of NSM
[4] = target: NSM protein from inclusion bodies (Tomato Spotted Wilt Virus) (UniProt P36292); test: indirect ELISA, large-scale purified soluble scFv (FIG. 5A); told to react more strongly with this form than with soluble NSM
[5] = target: NSM protein from inclusion bodies (Tomato Spotted Wilt Virus) (UniProt P36292); test: indirect ELISA, large-scale purified soluble scFv (FIG. 5A); told to react less strongly with this form than with soluble NSM
[6] = target: full-length NSM protein (putative movement protein of Tomato Spotted Wilt Virus) obtained from the IMPACT expression system (Tomato Spotted Wilt Virus) (UniProt P36292); test: capture ELISA, soluble NSM captured by rabbit polyclonal antibodies (FIG. 5B); told to react more strongly with soluble NSM than with NSM from inclusion bodies
[7] = target: NSM protein from inclusion bodies (Tomato Spotted Wilt Virus) (UniProt P36292); test: indirect ELISA, large-scale purified soluble scFv (FIG. 5A)

Measured: binding

B1: scFv N12 (scFv)
scFv: AVTLDESGGGLQTPGGGLSLVCKASGFDFSSYDMVWVRQAPGKGLEWVAGISSGSGPNYGAAVKGRATISRDNGQSTVRLQLNNLRAEDTATYYCAKNEGADWCGHYYCSVAYIDAWGHGTEVTVSSGSTSGSGKPGPGEGSTKGAPALTQPSSVSANPGETVKITCSGGSGDHYGWFQQKSPGSAPVTVIYNNDNRPSDIPSRFSGSKSGSTHTLTITGVQVEDEAVYFCGNRDSSAGIFGAGTTLTVLGQP
notes: Soluble scFv, mini-scale (pHEN4II, c-myc tag) or large-scale (pTMZ1, IMAC purified) from E. coli; also called clone N12; not shown: C-terminal c-myc and his-6 tags from the expression vector
binds: [1] | [2] | [3] | [4]

B2: scFv N5 (scFv)
scFv: AVTLDESGGGLQTPGGGLSLVCKASGFDFSSYDMVWVRQAPGKGLEWVAGISSGSVPNYGAAVKGRATISRDNGQSTVRLQLNNLRAEDTATYYCAKNEGADWCGHYYCSVAYIDAWGHGTEVTVSSGSTSGSGKPGPGEGSTKGAPALTQPSSVSANPGETVKITCSGGSGDHYGWFQQKSPGSAPVTVIYKNENRPSDIPSRFSGSKSGSTHTLTITGVQVEDEAVYFCGNRDSSAGIFGAGTTLTVLGQP
notes: Soluble scFv, mini-scale (pHEN4II, c-myc tag) or large-scale (pTMZ1, IMAC purified) from E. coli; also called clone N5; not shown: C-terminal c-myc and his-6 tags from the expression vector
binds: [1] | [2] | [3] | [4]

B3: scFv N3 (scFv)
scFv: AVTLDESGGGLQTPGGGLSLVCKASGFSFSSYSMGWVRQAPGKGLEWVAGIGSSVIRTYYAPAVKGRATIPRDNGQSTVRLQLNDLRAEDTGTYYCAKESGSGKWFSIGQIDAWGHGTEVTVSSGSTSGSGKPGPGEGSTKGAPALTQPSSVSANPGGTVQITCSGGSGSYGWFQQKSPGSAPVTVIYSSDKRPSDIPSRFSGSKSGSTGTLTITGVQADDEAVYFCGSADSSHLGIFGAGTTLTVLGQP
notes: Soluble scFv, mini-scale (pHEN4II, c-myc tag) or large-scale (pTMZ1, IMAC purified) from E. coli; also called clone N3; not shown: C-terminal c-myc and his-6 tags from the expression vector
binds: [1] | [3] | [5] | [6]

B4: scFv N10 (scFv)
scFv: AVTLDESGGGLQTPGGGLSLVCKASGFSFSSYSMGWVRQAPGKGLEWVAGIGSSVIRTYYAPAVKGRATIPRDNGQSTVRLQLNDLRAEDTGTYYCAKESGSGKWFSIGQIDAWGHGTEVTVSSGSTSGSGKPGPGEGSTKGAPALTQPSSVSANPGGTVQITCSGGSGNYGWFQQKSPGSAPVTVIYSSDKRPSDIPSRFSGSKSGSTGTLTITGVQADDEAVYFCGSADSSHLGIFGAGTTLTVLGQP
notes: Soluble scFv, mini-scale (pHEN4II, c-myc tag) or large-scale (pTMZ1, IMAC purified) from E. coli; also called clone N10; not shown: C-terminal c-myc and his-6 tags from the expression vector
binds: [1] | [7] | [2] | [3]
